This is one part of the list.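 Rule for the calls: active = dose-dependent thermal stabilisation significant by F-test of dose-response against flat model at 10% FDR; inactive = not significant.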

Sequences of proteins named here, by UniProt entry; tags and fusion partners are left off. A change or cut given only in a name is not applied to a line headed by its entry.
UniProt P09382, whole entry: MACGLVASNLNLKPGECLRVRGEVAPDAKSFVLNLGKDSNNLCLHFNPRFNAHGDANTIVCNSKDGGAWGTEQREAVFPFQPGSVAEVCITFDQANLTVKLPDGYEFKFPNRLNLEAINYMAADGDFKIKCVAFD
UniProt Q13907: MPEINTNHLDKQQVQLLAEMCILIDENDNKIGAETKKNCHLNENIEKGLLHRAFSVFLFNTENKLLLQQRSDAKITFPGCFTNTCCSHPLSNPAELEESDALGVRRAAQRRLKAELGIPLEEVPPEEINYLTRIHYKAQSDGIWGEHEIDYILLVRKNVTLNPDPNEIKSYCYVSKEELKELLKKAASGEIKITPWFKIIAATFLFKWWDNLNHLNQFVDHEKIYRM
UniProt Q8WWI1: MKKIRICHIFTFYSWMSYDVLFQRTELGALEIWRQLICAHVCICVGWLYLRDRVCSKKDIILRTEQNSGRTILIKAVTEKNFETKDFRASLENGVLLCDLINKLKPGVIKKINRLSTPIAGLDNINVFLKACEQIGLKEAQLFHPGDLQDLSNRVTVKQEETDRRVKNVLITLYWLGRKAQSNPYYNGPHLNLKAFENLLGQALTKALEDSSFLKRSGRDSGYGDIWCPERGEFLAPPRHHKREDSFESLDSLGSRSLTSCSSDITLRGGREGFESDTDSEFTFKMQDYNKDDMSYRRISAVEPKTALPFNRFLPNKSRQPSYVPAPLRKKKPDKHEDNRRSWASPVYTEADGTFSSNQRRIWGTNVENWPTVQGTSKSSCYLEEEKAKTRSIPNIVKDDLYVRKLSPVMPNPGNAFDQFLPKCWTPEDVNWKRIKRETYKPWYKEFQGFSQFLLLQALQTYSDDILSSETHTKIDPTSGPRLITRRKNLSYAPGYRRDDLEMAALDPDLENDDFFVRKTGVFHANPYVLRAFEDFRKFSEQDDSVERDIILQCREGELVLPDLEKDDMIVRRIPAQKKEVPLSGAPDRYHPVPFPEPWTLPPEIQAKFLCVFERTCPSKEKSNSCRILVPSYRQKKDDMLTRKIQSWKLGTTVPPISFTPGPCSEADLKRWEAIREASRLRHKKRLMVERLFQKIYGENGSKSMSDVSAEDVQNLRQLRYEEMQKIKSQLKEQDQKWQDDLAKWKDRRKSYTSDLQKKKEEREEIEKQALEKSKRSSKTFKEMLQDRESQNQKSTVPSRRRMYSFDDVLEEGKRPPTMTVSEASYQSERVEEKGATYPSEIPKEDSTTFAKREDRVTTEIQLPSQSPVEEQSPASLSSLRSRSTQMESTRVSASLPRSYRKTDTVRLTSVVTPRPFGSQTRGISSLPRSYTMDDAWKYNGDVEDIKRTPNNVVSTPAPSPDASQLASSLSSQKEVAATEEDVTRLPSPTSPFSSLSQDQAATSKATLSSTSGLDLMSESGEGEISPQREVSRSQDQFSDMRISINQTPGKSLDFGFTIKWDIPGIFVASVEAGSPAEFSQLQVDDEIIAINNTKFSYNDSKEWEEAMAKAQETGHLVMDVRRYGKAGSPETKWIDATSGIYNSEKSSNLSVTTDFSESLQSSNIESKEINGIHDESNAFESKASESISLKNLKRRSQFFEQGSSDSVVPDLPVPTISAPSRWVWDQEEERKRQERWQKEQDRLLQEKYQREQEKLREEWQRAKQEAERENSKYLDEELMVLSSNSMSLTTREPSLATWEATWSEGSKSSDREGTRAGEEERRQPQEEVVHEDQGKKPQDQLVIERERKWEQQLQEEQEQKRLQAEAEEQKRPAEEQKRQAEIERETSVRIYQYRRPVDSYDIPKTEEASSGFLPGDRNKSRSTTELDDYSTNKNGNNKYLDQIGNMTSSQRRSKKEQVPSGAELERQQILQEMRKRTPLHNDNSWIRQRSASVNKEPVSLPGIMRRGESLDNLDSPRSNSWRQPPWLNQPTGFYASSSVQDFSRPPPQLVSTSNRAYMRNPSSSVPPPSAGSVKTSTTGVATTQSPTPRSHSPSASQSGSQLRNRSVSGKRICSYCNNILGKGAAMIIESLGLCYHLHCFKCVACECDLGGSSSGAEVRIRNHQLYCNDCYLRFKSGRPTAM
UniProt Q15652: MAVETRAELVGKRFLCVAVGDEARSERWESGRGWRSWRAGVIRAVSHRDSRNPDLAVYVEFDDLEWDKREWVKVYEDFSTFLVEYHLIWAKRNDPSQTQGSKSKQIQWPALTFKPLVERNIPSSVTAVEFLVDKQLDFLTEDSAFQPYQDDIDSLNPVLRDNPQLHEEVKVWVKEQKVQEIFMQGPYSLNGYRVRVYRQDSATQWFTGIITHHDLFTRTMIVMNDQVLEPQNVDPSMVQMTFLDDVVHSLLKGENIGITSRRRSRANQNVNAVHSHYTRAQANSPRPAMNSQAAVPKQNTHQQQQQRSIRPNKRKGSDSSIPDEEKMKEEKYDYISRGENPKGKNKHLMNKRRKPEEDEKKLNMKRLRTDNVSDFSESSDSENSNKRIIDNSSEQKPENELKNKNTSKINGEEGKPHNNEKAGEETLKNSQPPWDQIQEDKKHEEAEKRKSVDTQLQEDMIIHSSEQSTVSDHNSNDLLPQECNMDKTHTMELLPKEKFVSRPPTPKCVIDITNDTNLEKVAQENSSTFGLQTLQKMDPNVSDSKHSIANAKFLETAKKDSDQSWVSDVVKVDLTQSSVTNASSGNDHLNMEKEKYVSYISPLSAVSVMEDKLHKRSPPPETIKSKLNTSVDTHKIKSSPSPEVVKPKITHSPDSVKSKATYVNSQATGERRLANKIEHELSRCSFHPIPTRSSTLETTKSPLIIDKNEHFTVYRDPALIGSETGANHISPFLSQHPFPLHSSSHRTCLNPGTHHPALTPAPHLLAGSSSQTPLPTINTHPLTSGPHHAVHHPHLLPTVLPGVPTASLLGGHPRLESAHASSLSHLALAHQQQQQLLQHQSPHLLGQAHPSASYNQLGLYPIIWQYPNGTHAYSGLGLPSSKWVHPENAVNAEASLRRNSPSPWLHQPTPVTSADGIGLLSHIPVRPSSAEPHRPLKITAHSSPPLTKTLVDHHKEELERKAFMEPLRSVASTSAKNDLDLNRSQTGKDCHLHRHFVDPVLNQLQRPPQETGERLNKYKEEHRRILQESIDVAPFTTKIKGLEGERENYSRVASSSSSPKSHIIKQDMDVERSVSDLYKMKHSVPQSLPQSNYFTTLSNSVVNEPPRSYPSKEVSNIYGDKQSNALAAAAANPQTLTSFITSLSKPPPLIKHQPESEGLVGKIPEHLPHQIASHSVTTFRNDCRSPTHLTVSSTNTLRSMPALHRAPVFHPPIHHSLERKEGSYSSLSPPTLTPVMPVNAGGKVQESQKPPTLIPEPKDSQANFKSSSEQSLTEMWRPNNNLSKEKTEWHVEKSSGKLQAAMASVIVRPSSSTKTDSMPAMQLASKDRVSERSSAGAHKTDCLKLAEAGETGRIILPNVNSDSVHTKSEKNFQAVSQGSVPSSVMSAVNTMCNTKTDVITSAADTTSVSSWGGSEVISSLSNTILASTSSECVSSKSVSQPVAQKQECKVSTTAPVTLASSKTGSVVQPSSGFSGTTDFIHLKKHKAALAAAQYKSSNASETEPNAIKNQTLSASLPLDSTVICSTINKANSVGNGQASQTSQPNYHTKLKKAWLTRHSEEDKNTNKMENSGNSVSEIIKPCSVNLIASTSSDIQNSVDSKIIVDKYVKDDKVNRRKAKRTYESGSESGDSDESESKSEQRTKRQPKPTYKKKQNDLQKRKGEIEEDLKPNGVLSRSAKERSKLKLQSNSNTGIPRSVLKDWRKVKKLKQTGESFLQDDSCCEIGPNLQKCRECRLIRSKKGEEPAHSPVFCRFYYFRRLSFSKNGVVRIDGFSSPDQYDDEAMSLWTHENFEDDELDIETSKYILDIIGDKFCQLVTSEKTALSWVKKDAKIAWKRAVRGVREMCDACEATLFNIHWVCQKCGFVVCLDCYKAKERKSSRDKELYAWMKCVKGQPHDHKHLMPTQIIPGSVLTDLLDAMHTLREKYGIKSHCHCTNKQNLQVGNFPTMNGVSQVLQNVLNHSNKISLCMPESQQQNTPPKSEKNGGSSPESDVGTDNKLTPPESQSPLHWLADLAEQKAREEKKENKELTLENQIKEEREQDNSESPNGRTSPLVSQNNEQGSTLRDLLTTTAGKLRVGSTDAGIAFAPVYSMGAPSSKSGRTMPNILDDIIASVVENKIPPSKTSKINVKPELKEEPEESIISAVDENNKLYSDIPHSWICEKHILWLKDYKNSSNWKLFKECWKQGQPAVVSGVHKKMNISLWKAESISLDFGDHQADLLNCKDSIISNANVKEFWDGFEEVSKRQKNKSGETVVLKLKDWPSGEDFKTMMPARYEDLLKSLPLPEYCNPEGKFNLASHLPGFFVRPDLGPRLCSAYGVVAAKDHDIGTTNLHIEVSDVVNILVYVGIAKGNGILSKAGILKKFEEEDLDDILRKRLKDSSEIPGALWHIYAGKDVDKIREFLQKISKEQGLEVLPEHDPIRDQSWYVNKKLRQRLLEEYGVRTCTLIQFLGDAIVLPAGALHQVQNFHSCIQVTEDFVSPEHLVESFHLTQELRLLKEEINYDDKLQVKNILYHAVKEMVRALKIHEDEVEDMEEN
UniProt P18858, whole entry: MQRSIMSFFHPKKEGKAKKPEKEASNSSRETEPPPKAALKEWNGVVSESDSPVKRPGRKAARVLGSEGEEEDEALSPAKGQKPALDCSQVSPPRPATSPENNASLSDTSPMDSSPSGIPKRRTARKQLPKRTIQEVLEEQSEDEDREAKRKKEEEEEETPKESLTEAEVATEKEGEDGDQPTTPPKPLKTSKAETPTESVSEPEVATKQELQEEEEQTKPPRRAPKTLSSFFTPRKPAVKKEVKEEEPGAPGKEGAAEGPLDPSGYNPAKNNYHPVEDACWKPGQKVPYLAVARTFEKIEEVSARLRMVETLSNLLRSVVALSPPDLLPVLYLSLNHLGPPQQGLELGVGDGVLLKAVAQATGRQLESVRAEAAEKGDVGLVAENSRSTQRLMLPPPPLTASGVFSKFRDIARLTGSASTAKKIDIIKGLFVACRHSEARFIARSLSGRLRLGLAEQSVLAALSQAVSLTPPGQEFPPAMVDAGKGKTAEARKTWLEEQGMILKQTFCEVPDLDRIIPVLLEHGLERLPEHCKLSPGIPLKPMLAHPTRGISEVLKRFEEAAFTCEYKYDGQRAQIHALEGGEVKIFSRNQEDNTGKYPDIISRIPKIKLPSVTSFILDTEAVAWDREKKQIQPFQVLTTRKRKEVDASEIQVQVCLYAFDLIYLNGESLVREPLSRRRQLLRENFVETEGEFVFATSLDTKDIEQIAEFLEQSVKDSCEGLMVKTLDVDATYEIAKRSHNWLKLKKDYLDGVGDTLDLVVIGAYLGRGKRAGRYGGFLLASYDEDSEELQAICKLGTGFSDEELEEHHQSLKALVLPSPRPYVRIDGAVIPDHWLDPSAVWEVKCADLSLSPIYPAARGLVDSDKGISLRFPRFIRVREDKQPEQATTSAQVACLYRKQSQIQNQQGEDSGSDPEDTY
UniProt Q03252: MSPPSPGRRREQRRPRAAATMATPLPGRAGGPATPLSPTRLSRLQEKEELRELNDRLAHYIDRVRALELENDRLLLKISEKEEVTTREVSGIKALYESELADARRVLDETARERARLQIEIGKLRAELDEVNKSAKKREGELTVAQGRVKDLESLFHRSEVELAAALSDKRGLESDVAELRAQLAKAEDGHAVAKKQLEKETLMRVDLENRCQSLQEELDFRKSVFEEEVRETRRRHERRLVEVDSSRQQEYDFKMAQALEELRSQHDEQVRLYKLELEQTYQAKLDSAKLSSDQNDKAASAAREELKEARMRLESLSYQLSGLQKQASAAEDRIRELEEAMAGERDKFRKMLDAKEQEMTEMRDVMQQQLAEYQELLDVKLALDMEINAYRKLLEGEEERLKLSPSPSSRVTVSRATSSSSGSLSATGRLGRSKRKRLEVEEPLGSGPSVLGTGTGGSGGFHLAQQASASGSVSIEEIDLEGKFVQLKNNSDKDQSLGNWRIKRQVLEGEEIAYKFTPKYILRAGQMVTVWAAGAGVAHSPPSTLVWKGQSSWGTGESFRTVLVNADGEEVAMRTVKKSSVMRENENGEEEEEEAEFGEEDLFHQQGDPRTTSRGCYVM
UniProt Q96AZ6: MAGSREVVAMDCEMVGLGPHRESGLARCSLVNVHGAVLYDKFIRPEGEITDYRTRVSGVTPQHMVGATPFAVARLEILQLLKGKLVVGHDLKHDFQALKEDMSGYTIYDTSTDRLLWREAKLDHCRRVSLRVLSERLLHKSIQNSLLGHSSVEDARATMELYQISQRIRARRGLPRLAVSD
UniProt P00492: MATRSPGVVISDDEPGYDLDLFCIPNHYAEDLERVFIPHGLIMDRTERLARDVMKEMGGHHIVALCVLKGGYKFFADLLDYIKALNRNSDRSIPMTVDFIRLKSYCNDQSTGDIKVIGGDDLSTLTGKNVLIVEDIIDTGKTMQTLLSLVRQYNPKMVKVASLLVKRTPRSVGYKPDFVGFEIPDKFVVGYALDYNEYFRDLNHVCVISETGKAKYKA

Compound in this experiment: Nc1nc2c(ncn2[C@@H]2O[C@H](COP(=O)(O)OP(=O)(O)OP(=O)(O)O)[C@@H](O)[C@H]2O)c(=O)[nH]1
The experiment can be described thus: dose-dependent thermal stabilisation call (2D-TPP, DLPTP, 10% FDR) (binary (1 = stabilised)); higher = stabilised by the compound. The following applies: system: Jurkat gel-filtered lysate; concentration range 1-500 µM.
Regarding HP1BP3 (UniProt Q5SSJ5), the “dose-dependent thermal stabilisation call” value was inactive: 0.
Take IRF2BP1 (UniProt Q8IU81): the “dose-dependent thermal stabilisation call” value is inactive: 0.
As to HTT (UniProt P42858), the “dose-dependent thermal stabilisation call” value is active: 1.
The figure for KLC2 (UniProt Q9H0B6) is active: 1; for KMT2D (UniProt O14686) it is inactive: 0; for HSPD1 (UniProt P10809) it is inactive: 0.
Next, LGALS1 (UniProt P09382): inactive: 0; KBTBD7 (UniProt Q8WVZ9): inactive: 0; KLHL18 (UniProt O94889): inactive: 0.
Next, KDM3A (UniProt Q9Y4C1): active: 1; JADE3 (UniProt Q92613): inactive: 0; IARS2 (UniProt Q9NSE4): inactive: 0.
As for IDI1 (UniProt Q13907), the “dose-dependent thermal stabilisation call” value was inactive: 0.
Next, LMO7 (UniProt Q8WWI1): inactive: 0; LAMP1 (UniProt P11279): inactive: 0; JMJD1C (UniProt Q15652): inactive: 0.
For the target HSPA1A (UniProt P0DMV8), the “dose-dependent thermal stabilisation call” value was inactive: 0.
The figure for KIF13B (UniProt Q9NQT8) is inactive: 0; for KATNAL1 (UniProt Q9BW62) it is inactive: 0.
The figure for ITCH (UniProt Q96J02) is inactive: 0; for LIG1 (UniProt P18858) it is inactive: 0.
The figure for IPO5 (UniProt O00410) is inactive: 0; for HSP90B1 (UniProt P14625) it is inactive: 0.
Take LMNB2 (UniProt Q03252): the “dose-dependent thermal stabilisation call” value is inactive: 0.
The figure for IRF3 (UniProt Q14653) is inactive: 0; for IRF2BPL (UniProt Q9H1B7) it is inactive: 0.
In the case of HSPH1 (UniProt Q92598), the “dose-dependent thermal stabilisation call” value was inactive: 0.
Next, LEMD3 (UniProt Q9Y2U8): inactive: 0.
Next, ISG20 (UniProt Q96AZ6): inactive: 0.
The figure for INTS4 (UniProt Q96HW7) is inactive: 0; for LARP1 (UniProt Q6PKG0) it is inactive: 0; for HPRT1 (UniProt P00492) it is inactive: 0.
In the case of KIF21B (UniProt O75037), the “dose-dependent thermal stabilisation call” value is inactive: 0.
The figure for LIMA1 (UniProt Q9UHB6) is inactive: 0; for INTS3 (UniProt Q68E01) it is inactive: 0; for IL16 (UniProt Q14005) it is inactive: 0.

(Values after the supplement of paper PMC7666118.)
